The other results are listed elsewhere or left out.

By UniProt entry, the sequences of proteins in these tests, tags left out. Where a name states a change or a piece, a line headed by the entry shows the natural chain unless it says otherwise.
UniProt Q9Y4B5: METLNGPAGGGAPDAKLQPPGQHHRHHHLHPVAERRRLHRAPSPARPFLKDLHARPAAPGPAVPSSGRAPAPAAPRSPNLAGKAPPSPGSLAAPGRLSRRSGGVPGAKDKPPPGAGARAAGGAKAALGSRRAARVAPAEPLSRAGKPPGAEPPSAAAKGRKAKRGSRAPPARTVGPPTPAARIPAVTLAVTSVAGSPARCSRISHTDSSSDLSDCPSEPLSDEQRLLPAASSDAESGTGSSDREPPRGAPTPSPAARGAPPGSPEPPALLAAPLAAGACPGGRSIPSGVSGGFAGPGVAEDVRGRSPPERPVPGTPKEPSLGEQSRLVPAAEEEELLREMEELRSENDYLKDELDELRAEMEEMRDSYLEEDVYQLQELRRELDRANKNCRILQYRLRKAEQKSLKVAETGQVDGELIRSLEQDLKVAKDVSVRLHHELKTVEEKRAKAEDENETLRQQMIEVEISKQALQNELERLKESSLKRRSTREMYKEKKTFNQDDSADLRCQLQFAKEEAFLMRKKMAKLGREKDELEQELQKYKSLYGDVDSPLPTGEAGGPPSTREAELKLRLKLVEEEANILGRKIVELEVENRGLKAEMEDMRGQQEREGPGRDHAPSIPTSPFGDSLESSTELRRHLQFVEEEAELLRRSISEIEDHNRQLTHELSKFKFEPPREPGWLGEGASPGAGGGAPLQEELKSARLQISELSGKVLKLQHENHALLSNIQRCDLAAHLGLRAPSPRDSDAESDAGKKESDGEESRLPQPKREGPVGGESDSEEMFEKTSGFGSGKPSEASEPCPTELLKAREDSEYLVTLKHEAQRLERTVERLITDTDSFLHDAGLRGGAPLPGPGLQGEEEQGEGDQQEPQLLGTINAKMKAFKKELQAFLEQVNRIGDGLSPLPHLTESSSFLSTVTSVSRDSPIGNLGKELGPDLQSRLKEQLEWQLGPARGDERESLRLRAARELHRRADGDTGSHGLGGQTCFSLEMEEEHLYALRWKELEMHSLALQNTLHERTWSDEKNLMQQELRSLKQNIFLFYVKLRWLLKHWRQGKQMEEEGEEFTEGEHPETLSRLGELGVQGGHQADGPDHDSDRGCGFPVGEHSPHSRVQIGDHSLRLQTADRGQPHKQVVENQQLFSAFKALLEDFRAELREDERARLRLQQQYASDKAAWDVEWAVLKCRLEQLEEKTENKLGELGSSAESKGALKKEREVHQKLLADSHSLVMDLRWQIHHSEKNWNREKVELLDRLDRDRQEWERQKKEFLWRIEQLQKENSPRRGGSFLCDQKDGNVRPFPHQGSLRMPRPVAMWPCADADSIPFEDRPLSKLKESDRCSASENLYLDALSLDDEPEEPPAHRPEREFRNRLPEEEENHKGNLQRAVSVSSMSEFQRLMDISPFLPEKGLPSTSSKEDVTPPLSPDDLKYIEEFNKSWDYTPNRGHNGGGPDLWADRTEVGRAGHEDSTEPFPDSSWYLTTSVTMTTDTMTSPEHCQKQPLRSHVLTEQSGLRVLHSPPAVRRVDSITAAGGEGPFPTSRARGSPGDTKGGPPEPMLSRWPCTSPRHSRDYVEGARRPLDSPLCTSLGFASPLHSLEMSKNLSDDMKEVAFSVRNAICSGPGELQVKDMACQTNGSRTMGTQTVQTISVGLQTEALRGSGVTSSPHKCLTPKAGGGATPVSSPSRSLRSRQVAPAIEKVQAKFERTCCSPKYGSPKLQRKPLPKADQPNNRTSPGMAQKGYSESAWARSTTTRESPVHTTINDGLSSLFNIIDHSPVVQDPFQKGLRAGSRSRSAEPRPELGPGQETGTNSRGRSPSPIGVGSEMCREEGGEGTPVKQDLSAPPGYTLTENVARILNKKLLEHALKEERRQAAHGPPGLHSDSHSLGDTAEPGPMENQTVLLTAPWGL
UniProt Q15800: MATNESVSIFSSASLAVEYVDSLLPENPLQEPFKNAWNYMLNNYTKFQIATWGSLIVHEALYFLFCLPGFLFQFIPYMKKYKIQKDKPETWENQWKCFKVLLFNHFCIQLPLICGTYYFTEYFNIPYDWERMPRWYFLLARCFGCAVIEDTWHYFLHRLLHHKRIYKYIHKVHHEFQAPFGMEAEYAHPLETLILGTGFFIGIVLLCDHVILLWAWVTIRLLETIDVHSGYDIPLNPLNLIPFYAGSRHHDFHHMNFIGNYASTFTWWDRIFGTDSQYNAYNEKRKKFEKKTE
UniProt Q96DH6: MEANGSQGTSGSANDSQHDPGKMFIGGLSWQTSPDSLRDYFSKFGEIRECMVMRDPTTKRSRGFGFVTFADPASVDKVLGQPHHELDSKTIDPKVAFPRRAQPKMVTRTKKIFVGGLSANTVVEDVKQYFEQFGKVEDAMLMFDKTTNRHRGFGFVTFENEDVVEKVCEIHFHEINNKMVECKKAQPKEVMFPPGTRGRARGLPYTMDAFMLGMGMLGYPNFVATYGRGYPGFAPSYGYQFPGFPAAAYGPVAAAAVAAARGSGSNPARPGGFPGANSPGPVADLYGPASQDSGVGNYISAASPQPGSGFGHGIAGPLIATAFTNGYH
UniProt Q96E11: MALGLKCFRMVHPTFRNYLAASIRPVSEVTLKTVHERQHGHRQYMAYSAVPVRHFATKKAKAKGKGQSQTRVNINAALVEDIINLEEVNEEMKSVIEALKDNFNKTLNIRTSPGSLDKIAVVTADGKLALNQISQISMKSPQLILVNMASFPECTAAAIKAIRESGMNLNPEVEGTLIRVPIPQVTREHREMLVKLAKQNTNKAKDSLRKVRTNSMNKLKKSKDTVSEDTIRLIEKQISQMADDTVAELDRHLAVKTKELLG
UniProt Q13330: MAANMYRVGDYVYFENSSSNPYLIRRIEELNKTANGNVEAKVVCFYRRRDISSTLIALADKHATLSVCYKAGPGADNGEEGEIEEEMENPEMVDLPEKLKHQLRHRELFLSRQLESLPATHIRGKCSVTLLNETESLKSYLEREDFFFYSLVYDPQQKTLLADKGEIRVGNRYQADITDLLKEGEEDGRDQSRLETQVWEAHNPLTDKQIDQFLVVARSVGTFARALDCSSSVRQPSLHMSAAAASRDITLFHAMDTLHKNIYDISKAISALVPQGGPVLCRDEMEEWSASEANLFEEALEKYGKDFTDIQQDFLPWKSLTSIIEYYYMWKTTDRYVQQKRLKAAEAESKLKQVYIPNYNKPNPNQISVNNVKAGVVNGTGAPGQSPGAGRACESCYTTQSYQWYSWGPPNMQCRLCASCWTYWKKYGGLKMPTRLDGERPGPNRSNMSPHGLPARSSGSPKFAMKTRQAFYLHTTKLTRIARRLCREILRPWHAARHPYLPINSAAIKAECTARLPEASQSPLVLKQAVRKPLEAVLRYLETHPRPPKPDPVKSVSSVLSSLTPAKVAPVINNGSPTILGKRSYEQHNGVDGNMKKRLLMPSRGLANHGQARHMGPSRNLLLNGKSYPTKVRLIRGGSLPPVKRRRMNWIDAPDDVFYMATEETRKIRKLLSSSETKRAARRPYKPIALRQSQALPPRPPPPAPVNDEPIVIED
UniProt Q15390: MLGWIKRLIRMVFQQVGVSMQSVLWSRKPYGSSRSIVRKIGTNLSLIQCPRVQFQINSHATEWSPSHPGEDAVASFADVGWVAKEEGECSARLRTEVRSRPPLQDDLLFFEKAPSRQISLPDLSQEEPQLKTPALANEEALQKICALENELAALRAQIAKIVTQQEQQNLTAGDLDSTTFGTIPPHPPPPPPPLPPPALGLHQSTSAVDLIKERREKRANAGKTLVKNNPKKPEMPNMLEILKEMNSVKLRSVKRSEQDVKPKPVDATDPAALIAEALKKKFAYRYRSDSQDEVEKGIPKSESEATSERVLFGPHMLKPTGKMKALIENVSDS
UniProt Q9UBK8: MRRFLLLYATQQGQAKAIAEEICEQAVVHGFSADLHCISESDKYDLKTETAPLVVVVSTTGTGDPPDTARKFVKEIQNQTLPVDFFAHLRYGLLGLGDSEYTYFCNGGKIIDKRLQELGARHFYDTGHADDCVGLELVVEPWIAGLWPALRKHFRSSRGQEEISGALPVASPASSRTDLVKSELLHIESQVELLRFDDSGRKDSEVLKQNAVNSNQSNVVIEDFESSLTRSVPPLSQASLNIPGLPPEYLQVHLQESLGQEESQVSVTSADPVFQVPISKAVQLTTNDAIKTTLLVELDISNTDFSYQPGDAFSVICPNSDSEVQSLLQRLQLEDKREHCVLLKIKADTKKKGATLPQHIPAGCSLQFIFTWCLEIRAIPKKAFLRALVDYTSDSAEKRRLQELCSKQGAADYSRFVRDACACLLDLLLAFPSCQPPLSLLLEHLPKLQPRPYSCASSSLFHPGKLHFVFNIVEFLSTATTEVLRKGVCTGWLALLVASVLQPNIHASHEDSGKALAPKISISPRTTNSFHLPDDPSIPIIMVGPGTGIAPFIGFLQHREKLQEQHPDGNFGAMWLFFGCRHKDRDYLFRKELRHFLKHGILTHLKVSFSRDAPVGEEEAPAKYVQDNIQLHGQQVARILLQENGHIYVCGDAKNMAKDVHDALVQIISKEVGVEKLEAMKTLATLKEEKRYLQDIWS
UniProt Q9P0P8: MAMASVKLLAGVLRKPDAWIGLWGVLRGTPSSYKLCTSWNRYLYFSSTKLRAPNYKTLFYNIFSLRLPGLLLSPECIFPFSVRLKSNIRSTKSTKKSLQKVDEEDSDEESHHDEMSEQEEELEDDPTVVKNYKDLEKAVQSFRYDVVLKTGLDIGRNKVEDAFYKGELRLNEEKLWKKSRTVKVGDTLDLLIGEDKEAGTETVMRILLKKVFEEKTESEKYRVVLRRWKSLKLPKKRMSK
UniProt Q13496: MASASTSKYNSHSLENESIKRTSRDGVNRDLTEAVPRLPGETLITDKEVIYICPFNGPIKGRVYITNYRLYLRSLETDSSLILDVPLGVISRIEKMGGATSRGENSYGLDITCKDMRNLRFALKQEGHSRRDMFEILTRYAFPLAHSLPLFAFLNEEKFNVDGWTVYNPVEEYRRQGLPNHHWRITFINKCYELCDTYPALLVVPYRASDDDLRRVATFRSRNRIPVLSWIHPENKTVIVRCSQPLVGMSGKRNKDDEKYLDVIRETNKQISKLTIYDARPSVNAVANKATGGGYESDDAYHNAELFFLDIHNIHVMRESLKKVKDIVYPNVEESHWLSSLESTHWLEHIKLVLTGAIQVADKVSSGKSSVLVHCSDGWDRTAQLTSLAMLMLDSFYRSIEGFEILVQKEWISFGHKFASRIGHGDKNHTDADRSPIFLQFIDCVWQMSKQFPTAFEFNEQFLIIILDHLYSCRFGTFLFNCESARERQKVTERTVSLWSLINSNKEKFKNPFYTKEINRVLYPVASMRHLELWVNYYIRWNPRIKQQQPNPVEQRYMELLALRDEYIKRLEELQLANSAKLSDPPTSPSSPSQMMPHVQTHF
UniProt P03928: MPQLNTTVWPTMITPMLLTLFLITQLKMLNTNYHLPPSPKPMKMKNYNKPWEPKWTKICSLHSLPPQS
UniProt Q9UGC7: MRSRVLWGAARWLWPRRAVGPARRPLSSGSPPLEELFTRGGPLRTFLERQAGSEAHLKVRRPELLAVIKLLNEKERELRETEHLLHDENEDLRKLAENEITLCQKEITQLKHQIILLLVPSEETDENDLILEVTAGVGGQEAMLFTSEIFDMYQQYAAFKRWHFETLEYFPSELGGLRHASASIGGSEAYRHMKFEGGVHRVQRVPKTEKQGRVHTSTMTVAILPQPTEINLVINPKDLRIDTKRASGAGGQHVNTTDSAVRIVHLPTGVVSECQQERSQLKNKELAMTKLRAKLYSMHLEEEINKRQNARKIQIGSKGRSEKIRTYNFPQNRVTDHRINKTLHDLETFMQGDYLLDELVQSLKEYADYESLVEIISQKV
UniProt O94776: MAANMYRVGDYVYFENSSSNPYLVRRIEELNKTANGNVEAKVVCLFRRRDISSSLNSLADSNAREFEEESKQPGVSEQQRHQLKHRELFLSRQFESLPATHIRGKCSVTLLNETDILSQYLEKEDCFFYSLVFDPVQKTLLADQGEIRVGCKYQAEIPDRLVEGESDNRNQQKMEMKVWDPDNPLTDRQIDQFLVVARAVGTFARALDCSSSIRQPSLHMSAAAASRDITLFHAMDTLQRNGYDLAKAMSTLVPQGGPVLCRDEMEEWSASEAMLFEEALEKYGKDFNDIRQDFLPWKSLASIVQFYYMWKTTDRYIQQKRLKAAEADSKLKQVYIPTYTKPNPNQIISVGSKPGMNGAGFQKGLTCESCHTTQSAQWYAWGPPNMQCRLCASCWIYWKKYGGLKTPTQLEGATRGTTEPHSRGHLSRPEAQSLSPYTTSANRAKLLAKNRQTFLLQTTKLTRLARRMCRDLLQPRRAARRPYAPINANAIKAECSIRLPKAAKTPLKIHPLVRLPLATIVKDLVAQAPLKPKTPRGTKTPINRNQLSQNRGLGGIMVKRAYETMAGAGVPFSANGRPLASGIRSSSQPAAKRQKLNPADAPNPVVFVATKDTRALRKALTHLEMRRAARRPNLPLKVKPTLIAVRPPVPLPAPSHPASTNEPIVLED
UniProt P13640: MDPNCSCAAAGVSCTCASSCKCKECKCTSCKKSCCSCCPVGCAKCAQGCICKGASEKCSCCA

Compound in the first test: CC[C@@H]1C(=O)N(C)c2cnc(Nc3ccc(C(=O)NC4CCN(C)CC4)cc3OC)nc2N1C1CCCC1
The test can be described thus: log2 fold change, soluble protein after heating vs DMSO (PISA); higher = thermal stabilisation; K562 lysate, 10 uM; active = over 0.2 and 3.5 SD of the protein, either way, in both replicates (recomputed). The method in brief: (§1)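 Values give the log-two fold change in thermal stability against solvent controls, from duplicates. Crude K562 extract at 1 mg/mL protein, made by dounce homogenisation in PBS pH 7.4 with 1 mM MgCl2, was treated with 10 μM compound for 30 min. After 3 min heating across 48°C-58°C, aliquots were pooled, adjusted to 0.5% NP-40 at 4°C and centrifuged at 21,000xg for 90 min. The supernatant was measured by TMTpro 16plex LC-MS/MS with channel sums equalised.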
As to MTCL1 (UniProt Q9Y4B5), the log2 fold change is inactive: 0.055.

As for MRPS23 (UniProt Q9Y3D9), the log2 fold change is inactive: -0.003.

As to MTMR1 (UniProt Q13613), the log2 fold change was inactive: 0.018.

MSMO1 (UniProt Q15800): the log2 fold change was inactive: 0.059.

For the target MSI2 (UniProt Q96DH6), the log2 fold change was inactive: 0.016.

In the case of MRPS11 (UniProt P82912), the log2 fold change was inactive: -0.128.

In the case of MTOR (UniProt P42345), the log2 fold change was inactive: -0.045.

For MRPL37 (UniProt Q9BZE1), the log2 fold change was inactive: -0.098.

On to MRPL38 (UniProt Q96DV4), for which the log2 fold change was inactive: -0.064.

Take MRPS27 isoform 2 (UniProt Q92552): the log2 fold change was inactive: -0.092.

As to MRRF (UniProt Q96E11), the log2 fold change is inactive: 0.048.

On to MRPS6 (UniProt P82932), for which the log2 fold change is inactive: 0.013.

With MRPL43 isoform 4 (UniProt Q8N983), the log2 fold change is inactive: -0.036.

For MTA1 (UniProt Q13330), the log2 fold change was inactive: -0.005.

For MTFR1 (UniProt Q15390), the log2 fold change was inactive: 0.058.

As to MRPS16 (UniProt Q9Y3D3), the log2 fold change was inactive: -0.064.

Consider MTRR isoform 1 (UniProt Q9UBK8), for which the log2 fold change was inactive: 0.017.

On to MTRES1 (UniProt Q9P0P8), for which the log2 fold change was inactive: -0.189.

For the target MTHFD1, A0A384N5Y3, the log2 fold change was inactive: -0.06.

Take MT-ND4 (UniProt P03905): the log2 fold change was inactive: 0.029.

MTCH2 (UniProt Q9Y6C9): the log2 fold change is inactive: 0.021.

As to MRPS7 (UniProt Q9Y2R9), the log2 fold change was inactive: 0.022.

Consider MTM1 (UniProt Q13496), for which the log2 fold change is inactive: 0.015.

Consider MT-ATP8 (UniProt P03928), for which the log2 fold change is inactive: 0.063.

Take MRPL55 isoform 2 (UniProt Q7Z7F7): the log2 fold change was inactive: 0.074.

MT-CO1 (UniProt P00395): the log2 fold change is inactive: -0.044.

In the case of MRPS21 (UniProt P82921), the log2 fold change is inactive: -0.139.

For the target MRPL50 (UniProt Q8N5N7), the log2 fold change is inactive: 0.016.

Regarding MTRF1L (UniProt Q9UGC7), the log2 fold change was inactive: 0.

For MSRB2 (UniProt Q9Y3D2), the log2 fold change is inactive: 0.148.

For the target MRPS14 (UniProt O60783), the log2 fold change was inactive: 0.023.

Turning to MRPL9 (UniProt Q9BYD2), the log2 fold change is inactive: 0.055.

For the target MRPS26 (UniProt Q9BYN8), the log2 fold change is inactive: -0.031.

In the case of MRPS9 (UniProt P82933), the log2 fold change is inactive: -0.029.

Consider MTA2 (UniProt O94776), for which the log2 fold change was inactive: 0.03.

As for MT1G (UniProt P13640), the log2 fold change is inactive: 0.044.

For the target MSH6 (UniProt P52701), the log2 fold change is inactive: -0.109.

Compound in a further test: CC[C@@H]1C(=O)N(C)c2cnc(Nc3ccc(C(=O)N[C@H]4CC[C@H](N5CCN(CC6CC6)CC5)CC4)cc3OC)nc2N1C(C)C [volasertib]
The test is described as above. The method in brief:
as §1
For MTCL1 (UniProt Q9Y4B5), the log2 fold change is inactive: -0.054.

Regarding MRPS23 (UniProt Q9Y3D9), the log2 fold change was inactive: -0.012.

Turning to MTMR1 (UniProt Q13613), the log2 fold change is inactive: -0.078.

As to MSMO1 (UniProt Q15800), the log2 fold change was inactive: 0.022.

Regarding MSI2 (UniProt Q96DH6), the log2 fold change is inactive: -0.023.

In the case of MRPS11 (UniProt P82912), the log2 fold change was inactive: 0.101.

For the target MTOR (UniProt P42345), the log2 fold change is inactive: -0.044.

As for MRPL37 (UniProt Q9BZE1), the log2 fold change was inactive: -0.041.

As to MRPL38 (UniProt Q96DV4), the log2 fold change is inactive: -0.114.

As for MRPS27 isoform 2 (UniProt Q92552), the log2 fold change was inactive: -0.034.

Turning to MRRF (UniProt Q96E11), the log2 fold change was inactive: -0.013.

Take MRPS6 (UniProt P82932): the log2 fold change is inactive: 0.049.

MRPL43 isoform 4 (UniProt Q8N983): the log2 fold change was inactive: -0.011.

With MTA1 (UniProt Q13330), the log2 fold change is inactive: -0.007.

MTFR1 (UniProt Q15390): the log2 fold change is inactive: 0.036.

For MRPS16 (UniProt Q9Y3D3), the log2 fold change is inactive: -0.092.

In the case of MTRR isoform 1 (UniProt Q9UBK8), the log2 fold change was inactive: -0.088.

With MTRES1 (UniProt Q9P0P8), the log2 fold change is inactive: -0.061.

Turning to MTHFD1, A0A384N5Y3, the log2 fold change is inactive: -0.112.

As for MT-ND4 (UniProt P03905), the log2 fold change is inactive: -0.04.

Turning to MTCH2 (UniProt Q9Y6C9), the log2 fold change is inactive: 0.05.

For the target MRPS7 (UniProt Q9Y2R9), the log2 fold change is inactive: -0.025.

In the case of MTM1 (UniProt Q13496), the log2 fold change is inactive: 0.001.

MT-ATP8 (UniProt P03928): the log2 fold change is inactive: 0.015.

For the target MRPL55 isoform 2 (UniProt Q7Z7F7), the log2 fold change was inactive: 0.063.

Regarding MT-CO1 (UniProt P00395), the log2 fold change was inactive: 0.073.

Consider MRPS21 (UniProt P82921), for which the log2 fold change was inactive: -0.156.

For the target MRPL50 (UniProt Q8N5N7), the log2 fold change is inactive: 0.057.

As to MTHFSD isoform 3 (UniProt Q2M296), the log2 fold change is inactive: 0.021.

For the target MTRF1L (UniProt Q9UGC7), the log2 fold change is inactive: 0.019.

As for MSRB2 (UniProt Q9Y3D2), the log2 fold change was inactive: 0.016.

With MRPS14 (UniProt O60783), the log2 fold change is inactive: 0.007.

For MRPL9 (UniProt Q9BYD2), the log2 fold change was inactive: 0.055.

In the case of MRPL35 (UniProt Q9NZE8), the log2 fold change is inactive: 0.013.

Take MRPS26 (UniProt Q9BYN8): the log2 fold change is inactive: -0.083.

With MRPS9 (UniProt P82933), the log2 fold change was inactive: -0.031.

For the target MTA2 (UniProt O94776), the log2 fold change was inactive: -0.008.

As to MT1G (UniProt P13640), the log2 fold change is inactive: 0.09.

Take MSH6 (UniProt P52701): the log2 fold change was inactive: -0.061.

The values are drawn from the supplement of paper PMC10849652.
